Substitutions are numbered along the chain they refer to. Names and notes keep the numbering of the source. Results are given in words; binding and its absence hold for the method and conditions named. Binding seen in cells or lysates may run through a third protein. Some results given as binding are weak or reduced against the parent protein; the word gives no strength.
How the values were obtained:
[1] = biological target: IκBα (human (endogenous in MCF10A and MCF-7/RT)) (UniProt P25963); test: co-IP; 0.5 mg of cell extract protein (50 mM Tris pH 7.4, 150 mM NaCl, 5 mM EDTA, 0.5% NP-40) incubated with anti-p65/RelA or anti-IκBα antibody (2 µg) overnight at 4°C, Protein A/G Plus-Agarose; immunoblot with anti-TG2
[2] = biological target: p65/RelA subunit of NF-κB (human (endogenous in MCF10A and MCF-7/RT)) (UniProt Q04206); test: as above

By UniProt entry, the sequences of proteins in these tests, tags left out.
UniProt P25963: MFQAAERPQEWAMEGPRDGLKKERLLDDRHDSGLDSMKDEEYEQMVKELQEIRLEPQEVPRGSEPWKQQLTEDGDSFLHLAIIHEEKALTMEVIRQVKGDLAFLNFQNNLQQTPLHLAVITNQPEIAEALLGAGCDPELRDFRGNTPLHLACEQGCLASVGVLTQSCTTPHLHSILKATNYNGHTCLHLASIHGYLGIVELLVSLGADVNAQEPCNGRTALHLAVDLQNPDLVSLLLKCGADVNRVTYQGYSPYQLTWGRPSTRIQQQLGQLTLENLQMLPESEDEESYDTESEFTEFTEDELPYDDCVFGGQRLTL
UniProt Q04206: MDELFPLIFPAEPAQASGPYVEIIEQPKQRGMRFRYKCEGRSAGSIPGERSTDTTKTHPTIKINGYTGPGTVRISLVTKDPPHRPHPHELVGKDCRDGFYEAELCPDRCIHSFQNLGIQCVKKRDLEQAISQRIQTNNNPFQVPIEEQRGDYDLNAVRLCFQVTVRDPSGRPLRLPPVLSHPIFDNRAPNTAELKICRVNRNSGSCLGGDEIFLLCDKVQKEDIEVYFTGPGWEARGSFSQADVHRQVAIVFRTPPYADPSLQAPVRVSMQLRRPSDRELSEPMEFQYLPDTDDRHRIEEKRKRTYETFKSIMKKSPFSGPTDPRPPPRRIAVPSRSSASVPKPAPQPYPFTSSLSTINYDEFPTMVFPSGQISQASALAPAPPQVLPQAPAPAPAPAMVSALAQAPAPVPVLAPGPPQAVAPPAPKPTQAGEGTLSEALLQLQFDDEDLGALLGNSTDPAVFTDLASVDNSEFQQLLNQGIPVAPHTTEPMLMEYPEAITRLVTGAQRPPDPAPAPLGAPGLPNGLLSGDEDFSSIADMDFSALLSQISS

B1: catalytically inactive tissue transglutaminase (TG2-C277S) (enzyme, UniProt P21980 1-687)
chain: MAEELVLERCDLELETNGRDHHTADLCREKLVVRRGQPFWLTLHFEGRNYEASVDSLTFSVVTGPAPSQEAGTKARFPLRDAVEEGDWTATVVDQQDCTLSLQLTTPANAPIGLYRLSLEASTGYQGSSFVLGHFILLFNAWCPADAVYLDSEEERQEYVLTQQGFIYQGSAKFIKNIPWNFGQFEDGILDICLILLDVNPKFLKNAGRDCSRRSSPVYVGRVVSGMVNCNDDQGVLLGRWDNNYGDGVSPMSWIGSVDILRRWKNHGCQRVKYGQSWVFAAVACTVLRCLGIPTRVVTNYNSAHDQNSNLLIEYFRNEFGEIQGDKSEMIWNFHCWVESWMTRPDLQPGYEGWQALDPTPQEKSEGTYCCGPVPVRAIKEGDLSTKYDAPFVFAEVNADVVDWIQQDDGSVHKSINRSLIVGLKISTKSVGRDEREDITHTYKYPEGSSEEREAFTRANHLNKLAEKEETGMAMRIRVGQSMNMGSDFDVFAHITNNTAEEYVCRLLLCARTVSYNGILGPECGTKYLLNLNLEPFSEKSVPLCILYEKYRDCLTESNLIKVRALLVEPVINSYLLAERDLYLENPEIKIRILGEPKQKRKLVAEVSLQNPLPVALEGCTFTVEGAGLTEEQKTVEIPDPVEAGEEVKVRMDLLPLHMGLHKLVVNFESDKLKAVKGFRNVIIGPA
Question: What does the source list for B1?
Answer: binding [1]: binds; binding [2]: binds

B2: tissue transglutaminase (TG2), endogenous in MCF-7/RT cells (enzyme, UniProt P21980 1-687)
chain: B1 chain with S277C
Question: For B2, which binding [1] is on record?
Answer: binds

Question: And the binding [2]?
Answer: binds

Reference: PMC3501523
